Measured values from PubChem BioAssay AID504467 (National Center for Advancing Translational Sciences (NCATS), 2011).
Screen size: about 330,000 compounds; about 7,700 (2.3%) were called active. Inconclusive means that the source gave no clear call. Such entries were picked first, then a sample of the others. Calls follow the shape of the dose curve; as a rule, active = well fitted inhibition curve with a large enough effect; inconclusive = small, poorly fitted or top-dose-only effect, or effect the other way; inactive = flat fitted curve, though single readings scatter. A potency beside an inconclusive call is a rough fit, not a confirmed value.

Experiment: qHTS screen for small molecules that inhibit ELG1-dependent DNA repair in human embryonic kidney (HEK293T) cells expressing luciferase-tagged ELG1; also: nearly all actives have a fitted effect of over 55% in size
Details: HEK293T ELG1-luciferase reporter, luminescence, 16 h, DNA damage induced by 5-fluorouridine; series mostly up to 46.1 µM
In short: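 Step one: seed 2,000 cells per well. Step two: pin-transfer compound or DMSO alongside 5-fluorouridine. Step three: incubate 16 hr, 37 °C, 5% CO2. Step four: add ONE-Glo, wait 30 min, read luminescence.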
Potency is read from the fitted curve at half-maximal effect.

Structure (SMILES) | Potency
CCOCCCn1c(=S)[nH]c2cc(C(=O)N3CCN(C)CC3)ccc2c1=O | inactive
COc1ccc(N/C=C\C(=O)c2ccc3c(c2)OCO3)cc1OC | inconclusive: 10.3 µM [activator, partial curve]
CCCNC(=O)c1ccc2c(=O)c(O)c(-c3ccc(F)cc3)[nH]c2c1 | inactive
c1ccc(Oc2ccc(-c3ccnc4nc(N5CCN(c6ccccc6)CC5)nn34)cc2)cc1 | inconclusive: 8.91 µM [inhibitor, partial curve]
COc1ccccc1NC(=O)C(C)Nc1ccc(C)c(Cl)c1 (centres undefined) | inactive
CCCCCC(=O)c1ccc(O)cc1O | inconclusive: 23.1 µM [activator, partial curve]
Fc1ccc(N2CCN(C(=S)NCC3CCCO3)CC2)cc1 (centres undefined) | inconclusive: 29.1 µM [inhibitor, single point]
Cc1ccccc1OCCSCc1nc2ccccc2[nH]1 | inconclusive: 29.1 µM [inhibitor, single point]
Cc1nnc(N2CCCC(C(=O)NCc3cccc(F)c3)C2)c2nn(-c3ccccc3)c(C)c12 (centres undefined) | inconclusive: 29.1 µM [inhibitor, single point]
O=C(CN1C(=O)c2ccccc2C1=O)NC1CCC(O)CC1 (centres undefined) | inactive
CC(=O)c1cc(C#N)c(SCC(=O)OC(C)(C)C)nc1C | inactive
Cc1ccc(NC(=O)COC(=O)c2ccco2)cc1S(=O)(=O)N1CCOCC1 | inconclusive: 23.1 µM [activator, single point]
CCOc1ccccc1NC(=O)CCc1nnc2ccc(N3CCC(C)CC3)nn12 | inconclusive: 20.6 µM [inhibitor, single point]
CCOC(=O)c1sc(Nc2nc(C)cc(C)n2)nc1C | inconclusive: 8.2 µM [inhibitor, partial curve, poor fit]
COc1ccc2c(c1)-c1nc(NC(=O)c3ccco3)sc1CC2 | inconclusive: 18.4 µM [activator, single point]
COc1cccc(Nc2cc(N3CCOCC3)c3nonc3c2[N+](=O)[O-])c1 | inconclusive: 3.66 µM [activator, partial curve, poor fit]
Cc1ccc(C(=O)NCCCc2ccccc2)s1 | inconclusive: 11.6 µM [activator, partial curve]
COc1cc(NC(=O)c2ccc(Cl)cc2)c(OC)cc1NC(=O)CN1CCOCC1 | inconclusive: 29.1 µM [inhibitor, single point]
COc1ccc(-c2cn3cccnc3n2)cc1F | inconclusive: 14.6 µM [activator, partial curve]
CCCN1CCN(c2ccc(S(N)(=O)=O)cc2[N+](=O)[O-])CC1 | inactive
COc1ccc(-c2cc(C(F)(F)F)c(C#N)c(SCC(=O)Nc3ccc(C)cc3)n2)cc1 | inconclusive: 25.9 µM [activator, single point]
CCO[C@H]1OC(C(=O)O)=C[C@@H](C)[C@@H]1CCCO | inactive

Structure (SMILES) | Potency
O=C(Nc1nnc(-c2cccs2)o1)c1ccco1 | inconclusive: 29.1 µM [activator, partial curve, poor fit]
O=C(Nc1ccc(F)cc1)N(Cc1cccs1)Cc1cc2cc3c(cc2[nH]c1=O)OCO3 | active: 18.4 µM
O=C1N=C(N2CCOCC2)S/C1=C/c1cccs1 | inconclusive: 14.6 µM [activator, partial curve]
O=C(c1csc2c1CCCC2)N1CCN(c2ccc(F)cc2)CC1 | inconclusive: 5.8 µM [inhibitor, partial curve]
CCOc1ccc(CN2CCN(Cc3[nH]c4ccccc4c3C)CC2CCO)cc1 (centres undefined) | inconclusive: 29.1 µM [inhibitor, single point]
Cc1ccc(NS(=O)(=O)c2cccc(C(=O)OCC(=O)NCc3ccco3)c2)cc1 | inactive
COc1cccc(-c2onc3ccc(C(=O)/C=C/N(C)C)cc23)c1 | inconclusive: 9.2 µM [inhibitor, partial curve]
C/C(N)=C(/C#N)C(=O)CSc1nnc(Nc2ccccc2)s1 | inconclusive: 14.6 µM [activator, partial curve]
C[C@H](NC(=O)c1ccc(C(C)(C)C)cc1)C(=O)N1CCN(C/C=C/c2ccccc2)CC1 | inconclusive: 5.17 µM [inhibitor, single point]
COc1cccc(CC(=O)Nc2cc(S(=O)(=O)N3CCOCC3)ccc2OC)c1 | inactive
O=C(NC1CCN(C(=O)N2c3ccccc3Sc3ccccc32)CC1)c1ccccc1F | inconclusive: 29.1 µM [inhibitor, partial curve, poor fit]
CCOc1ccccc1N1CCN(C(=O)CCCc2nc3ccccc3s2)CC1 | inconclusive: 20.6 µM [inhibitor, single point]
Cc1ccc(S(=O)(=O)N(C)C)cc1NC(=O)c1cc(S(=O)(=O)N2CCCCC2)ccc1N1CCOCC1 | active: 10.3 µM
COc1cccc(C(=O)NC(=S)Nc2ccc3c4c(cccc24)CC3)c1 | inconclusive: 20.6 µM [activator, single point]
Cc1c(OC(C)C(=O)NCC(O)c2ccccc2)ccc2c3c(c(=O)oc12)CCC3 (centres undefined) | inconclusive: 8.2 µM [inhibitor, partial curve, poor fit]
N#C/C(C(=O)Oc1ccccc1)=C1\C=CC=CN1 | inconclusive: 14.6 µM [activator, partial curve]
CCN(C[C@H]1N[C@@](Cc2ccccc2)(C(=O)OC)[C@H]2C(=O)N(C)C(=O)[C@@H]12)C(=O)C1CCCCC1 | inactive
COC(=O)c1ccc(-c2cc(C(=O)O)c3cc4c(cc3n2)OCCO4)cc1 | inconclusive: 29.1 µM [activator, single point]
CCN1C(=O)S/C(=C/c2ccc(Sc3nc4ccccc4[nH]3)o2)C1=O | active: 11.6 µM
Cc1nn(C(=O)CCC(=O)NCc2ccccc2Cl)c2ccccc12 | inactive
COc1ccc(OCCn2c(C)c(/C=N/n3cnnc3)c3ccccc32)cc1 | inconclusive: 16.4 µM [inhibitor, partial curve, poor fit]
O=C(c1ccccc1)c1ccc(OCC(O)CN2CCN(S(=O)(=O)N3CCCCC3)CC2)cc1 (centres undefined) | active: 18.4 µM

An excerpt of these results, tab-delimited.
Structure (SMILES)	Potency
O=C(Nc1nnc(-c2cccs2)o1)c1ccco1	inconclusive: 29.1 µM [activator, partial curve, poor fit]
O=C(Nc1ccc(F)cc1)N(Cc1cccs1)Cc1cc2cc3c(cc2[nH]c1=O)OCO3	active: 18.4 µM
O=C1N=C(N2CCOCC2)S/C1=C/c1cccs1	inconclusive: 14.6 µM [activator, partial curve]
O=C(c1csc2c1CCCC2)N1CCN(c2ccc(F)cc2)CC1	inconclusive: 5.8 µM [inhibitor, partial curve]
CCOc1ccc(CN2CCN(Cc3[nH]c4ccccc4c3C)CC2CCO)cc1 (centres undefined)	inconclusive: 29.1 µM [inhibitor, single point]
Cc1ccc(NS(=O)(=O)c2cccc(C(=O)OCC(=O)NCc3ccco3)c2)cc1	inactive
COc1cccc(-c2onc3ccc(C(=O)/C=C/N(C)C)cc23)c1	inconclusive: 9.2 µM [inhibitor, partial curve]
C/C(N)=C(/C#N)C(=O)CSc1nnc(Nc2ccccc2)s1	inconclusive: 14.6 µM [activator, partial curve]
C[C@H](NC(=O)c1ccc(C(C)(C)C)cc1)C(=O)N1CCN(C/C=C/c2ccccc2)CC1	inconclusive: 5.17 µM [inhibitor, single point]
COc1cccc(CC(=O)Nc2cc(S(=O)(=O)N3CCOCC3)ccc2OC)c1	inactive
O=C(NC1CCN(C(=O)N2c3ccccc3Sc3ccccc32)CC1)c1ccccc1F	inconclusive: 29.1 µM [inhibitor, partial curve, poor fit]
CCOc1ccccc1N1CCN(C(=O)CCCc2nc3ccccc3s2)CC1	inconclusive: 20.6 µM [inhibitor, single point]
